Experimental data: patent publication US20230121608A1, “Compositions and Methods for the Prevention of Stress-Induced Fear, Depressive-Like and Anxiety- Like Behavior” (The Trustees of Columbia University in the City of New York, priority 2020, published 2023)

System: C57BL/6 mice
Test: Novelty suppressed feeding (NSF)
Type: in vivo, mouse
Conditions: female C57BL/6 mice; one week before CFC stress; (R,S)-ketamine 10 mg/kg, combined 10 + 1.5 mg/kg
Description: All food was removed from the home cage.

CNC1(c2ccccc2Cl)CCCCC1=O (racemic) [(R,S)-ketamine, (RS)-2-(2-chlorophenyl)-2-(methylamino)cyclohexanone]
Body weight loss, NSF: did not alter
Latency to feed in the home cage, NSF: did not alter
